In PMC5833388 one finds binding data, which are given here for 1 substance.

Protein sequences, listed by entry. Tags and fused reporters are not part of them.
UniProt Q62388: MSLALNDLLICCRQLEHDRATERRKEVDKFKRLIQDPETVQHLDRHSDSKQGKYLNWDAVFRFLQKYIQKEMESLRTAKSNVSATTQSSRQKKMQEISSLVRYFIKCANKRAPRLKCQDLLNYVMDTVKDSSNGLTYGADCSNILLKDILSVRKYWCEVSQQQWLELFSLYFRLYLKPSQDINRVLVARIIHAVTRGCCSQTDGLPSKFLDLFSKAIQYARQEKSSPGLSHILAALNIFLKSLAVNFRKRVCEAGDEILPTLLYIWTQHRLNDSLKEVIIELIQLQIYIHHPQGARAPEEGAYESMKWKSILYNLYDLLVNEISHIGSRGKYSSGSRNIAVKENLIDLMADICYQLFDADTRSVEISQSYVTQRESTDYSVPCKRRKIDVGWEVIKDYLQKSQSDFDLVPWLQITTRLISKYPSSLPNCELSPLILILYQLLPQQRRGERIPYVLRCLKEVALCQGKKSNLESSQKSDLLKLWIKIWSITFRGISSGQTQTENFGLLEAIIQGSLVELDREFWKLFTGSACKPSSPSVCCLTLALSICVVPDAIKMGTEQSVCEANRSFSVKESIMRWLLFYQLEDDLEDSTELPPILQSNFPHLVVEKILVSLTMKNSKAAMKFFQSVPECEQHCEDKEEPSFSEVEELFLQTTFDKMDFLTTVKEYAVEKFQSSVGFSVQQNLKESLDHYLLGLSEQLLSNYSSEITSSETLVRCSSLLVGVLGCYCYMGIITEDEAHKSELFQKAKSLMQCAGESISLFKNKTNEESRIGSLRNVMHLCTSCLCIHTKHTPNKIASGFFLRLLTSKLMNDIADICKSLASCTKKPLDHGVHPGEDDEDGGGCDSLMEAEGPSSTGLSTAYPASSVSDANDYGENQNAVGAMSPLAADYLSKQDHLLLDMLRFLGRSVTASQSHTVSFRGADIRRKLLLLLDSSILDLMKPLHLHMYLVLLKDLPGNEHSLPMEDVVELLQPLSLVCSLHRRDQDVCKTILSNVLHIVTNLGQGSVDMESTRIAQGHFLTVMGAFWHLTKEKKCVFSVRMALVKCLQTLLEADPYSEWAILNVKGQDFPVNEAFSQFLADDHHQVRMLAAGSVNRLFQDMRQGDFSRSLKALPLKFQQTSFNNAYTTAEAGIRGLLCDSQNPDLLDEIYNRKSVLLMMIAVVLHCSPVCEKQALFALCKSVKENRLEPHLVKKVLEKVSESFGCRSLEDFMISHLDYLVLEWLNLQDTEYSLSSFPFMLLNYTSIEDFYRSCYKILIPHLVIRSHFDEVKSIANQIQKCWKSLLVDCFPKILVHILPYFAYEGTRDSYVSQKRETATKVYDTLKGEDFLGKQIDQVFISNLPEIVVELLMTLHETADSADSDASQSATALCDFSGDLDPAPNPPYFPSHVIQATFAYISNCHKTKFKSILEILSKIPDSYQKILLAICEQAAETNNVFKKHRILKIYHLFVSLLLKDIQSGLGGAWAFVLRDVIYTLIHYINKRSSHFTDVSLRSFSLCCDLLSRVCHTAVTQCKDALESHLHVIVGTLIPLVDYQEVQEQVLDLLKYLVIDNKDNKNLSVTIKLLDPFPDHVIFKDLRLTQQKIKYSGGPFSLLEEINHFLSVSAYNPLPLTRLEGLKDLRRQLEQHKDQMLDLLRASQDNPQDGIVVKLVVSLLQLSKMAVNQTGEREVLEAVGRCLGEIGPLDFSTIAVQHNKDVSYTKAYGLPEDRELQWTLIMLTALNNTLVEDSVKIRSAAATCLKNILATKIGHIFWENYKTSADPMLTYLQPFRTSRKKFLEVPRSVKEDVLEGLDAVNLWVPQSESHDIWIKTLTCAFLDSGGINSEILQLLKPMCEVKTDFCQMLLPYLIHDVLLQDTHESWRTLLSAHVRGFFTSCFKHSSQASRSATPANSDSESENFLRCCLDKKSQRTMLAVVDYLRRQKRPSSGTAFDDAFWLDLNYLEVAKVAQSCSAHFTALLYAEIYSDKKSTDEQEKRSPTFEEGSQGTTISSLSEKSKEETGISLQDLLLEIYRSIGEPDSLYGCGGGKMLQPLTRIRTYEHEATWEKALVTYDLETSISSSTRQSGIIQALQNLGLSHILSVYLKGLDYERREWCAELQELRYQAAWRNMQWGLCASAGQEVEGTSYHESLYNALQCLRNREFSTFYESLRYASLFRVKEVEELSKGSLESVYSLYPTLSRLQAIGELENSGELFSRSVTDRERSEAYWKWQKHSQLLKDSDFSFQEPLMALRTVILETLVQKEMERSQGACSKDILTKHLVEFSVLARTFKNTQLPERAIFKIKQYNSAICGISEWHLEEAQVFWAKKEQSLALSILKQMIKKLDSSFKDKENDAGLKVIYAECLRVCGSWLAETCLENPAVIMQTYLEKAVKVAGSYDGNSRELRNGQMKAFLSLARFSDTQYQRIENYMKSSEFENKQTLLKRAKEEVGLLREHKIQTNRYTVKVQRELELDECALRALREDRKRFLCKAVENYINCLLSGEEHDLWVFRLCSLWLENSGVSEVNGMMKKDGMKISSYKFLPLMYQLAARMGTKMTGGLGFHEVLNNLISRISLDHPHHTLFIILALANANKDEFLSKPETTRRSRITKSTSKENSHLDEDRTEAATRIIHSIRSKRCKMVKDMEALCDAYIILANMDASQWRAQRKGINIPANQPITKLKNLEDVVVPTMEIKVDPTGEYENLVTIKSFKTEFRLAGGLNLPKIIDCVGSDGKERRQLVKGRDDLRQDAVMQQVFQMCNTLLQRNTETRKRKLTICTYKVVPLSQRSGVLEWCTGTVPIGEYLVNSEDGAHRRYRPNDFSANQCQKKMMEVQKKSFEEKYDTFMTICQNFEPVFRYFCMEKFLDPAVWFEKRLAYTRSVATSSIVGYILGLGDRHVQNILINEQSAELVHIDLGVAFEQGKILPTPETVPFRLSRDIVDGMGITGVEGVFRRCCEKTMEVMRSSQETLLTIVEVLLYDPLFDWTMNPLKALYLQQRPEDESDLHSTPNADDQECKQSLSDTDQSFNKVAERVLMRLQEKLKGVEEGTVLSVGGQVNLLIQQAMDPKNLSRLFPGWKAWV

In this assay the target is T1, Nbs1 (mouse (endogenous in MEFs)) (UniProt Q9R207).
T1 sequence: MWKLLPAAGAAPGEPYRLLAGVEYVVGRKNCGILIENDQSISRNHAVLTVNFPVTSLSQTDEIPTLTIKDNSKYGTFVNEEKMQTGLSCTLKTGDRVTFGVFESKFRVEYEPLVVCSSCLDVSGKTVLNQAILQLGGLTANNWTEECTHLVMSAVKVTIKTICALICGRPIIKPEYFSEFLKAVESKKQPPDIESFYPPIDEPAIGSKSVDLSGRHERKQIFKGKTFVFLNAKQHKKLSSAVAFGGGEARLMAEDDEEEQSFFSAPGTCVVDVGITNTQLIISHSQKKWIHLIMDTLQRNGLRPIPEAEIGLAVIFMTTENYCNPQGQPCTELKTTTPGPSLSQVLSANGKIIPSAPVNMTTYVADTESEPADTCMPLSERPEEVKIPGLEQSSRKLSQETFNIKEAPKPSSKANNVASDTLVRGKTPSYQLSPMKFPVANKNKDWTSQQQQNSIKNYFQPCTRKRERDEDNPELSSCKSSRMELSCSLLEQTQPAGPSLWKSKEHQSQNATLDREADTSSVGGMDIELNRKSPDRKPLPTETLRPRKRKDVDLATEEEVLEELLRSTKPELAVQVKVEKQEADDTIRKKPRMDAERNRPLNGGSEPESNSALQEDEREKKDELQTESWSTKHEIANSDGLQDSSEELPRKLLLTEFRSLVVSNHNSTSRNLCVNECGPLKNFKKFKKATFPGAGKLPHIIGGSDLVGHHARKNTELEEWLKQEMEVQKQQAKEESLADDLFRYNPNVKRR
As to the kind of experiment: co-IP; endogenous proteins in lysates of Rps27l+/+;Trp53+/- and Rps27l-/-;Trp53+/- MEFs, untreated or irradiated at 5 Gy and harvested at indicated time points; immunoprecipitation with Mdm2 or Nbs1 antibody, then immunoblot. In general terms: In western blotting, separated proteins are transferred to a membrane and probed.

No constants are given. Whether binding was seen depends on the method and setting. Binding seen in cells or lysates may run through a third protein. Some entries that bind do so weakly or less than the wild type.

With Atm (from UniProt Q62388 1-3066), the binding entry is “binds”.
